Patent US9855260B2, “Quinolinone derivatives” (GlaxoSmithKline LLC, priority 2011, dated 2018)
Some of these results come from one statement about several compounds together.

test system: Human recombinant AMPK; assay: AMPK Enzymatic Assay (Z'Lyte FRET format); format: biochemical; settings: AMPK activation, ATP 100 μM, means of at least 2 independent experiments

Row | Structure (SMILES) | average pEC200 (-Log(compound concentration leading to a 2-fold AMPK activity increase))
1 | COc1ccc(Oc2c(O)c3cc(-c4ccc5c(ccn5C)c4)c(Cl)cc3[nH]c2=O)cc1 [Example 176, 7-Chloro-4-hydroxy-3-(4-methoxyphenoxy)-6-(1-methyl-1H-indol-5-yl)quinolin-2(1H)-one] | greater than or equal to 5.0
2 | CC(C)c1ccc(-c2cc3c(O)c(Oc4cccc(F)c4)c(=O)[nH]c3cc2Cl)cc1 [Example 64, 7-Chloro-3-(3-fluorophenoxy)-4-hydroxy-6-(4-isopropylphenyl)quinolin-2(1H)-one] | greater than or equal to 5.0
3 | Cc1ccc(Oc2c(O)c3cc(-c4ccc5c(ccn5C)c4)c(Cl)cc3[nH]c2=O)nc1 [Example 133, 7-Chloro-4-hydroxy-6-(1-methyl-1H-indol-5-yl)-3-((5-methylpyridin-2-yl)oxy)quinolin-2(1H)-one] | greater than or equal to 5.0
4 | COc1ccnc(Oc2c(O)c3cc(-c4ccc(N(C)C)cc4)c(Cl)cc3[nH]c2=O)c1 [Example 175, 7-Chloro-6-(4-(dimethylamino)phenyl)-4-hydroxy-3-((4-methoxypyridin-2-yl)oxy)quinolin-2(1H)-one] | greater than or equal to 5.0
5 | CN(C)c1ccc(-c2cc3c(O)c(-c4cccc(Cl)c4)c(=O)[nH]c3cc2Cl)cc1 [Example 153, 7-Chloro-3-(3-chlorophenyl)-6-(4-(dimethylamino)phenyl)-4-hydroxyquinolin-2(1H)-one] | greater than or equal to 5.0
6 | O=c1[nH]c2cc(Cl)c(-c3ccc4[nH]ccc4c3)cc2c(O)c1-n1cccn1 [Example 126, 7-Chloro-4-hydroxy-6-(1H-indol-5-yl)-3-(1H-pyrazol-1-yl)quinolin-2(1H)-one] | greater than or equal to 5.0
7 | COc1cccc(-c2c(O)c3cc(-c4ccc5ncn(C)c5c4)c(Cl)cc3[nH]c2=O)c1 [Example 33, 7-Chloro-4-hydroxy-3-(3-methoxyphenyl)-6-(1-methyl-1H-benzo[d]imidazol-6-yl)quinolin-2(1H)-one] | greater than or equal to 5.0
8 | O=c1[nH]c2cc(Cl)c(-c3ccc(-c4ccccc4O)cc3)cc2c(O)c1-n1cccn1 [Example 95, 7-Chloro-4-hydroxy-6-(2′-hydroxy-[1,1′-biphenyl]-4-yl)-3-(1H-pyrazol-1-yl)quinolin-2(1H)-one] | greater than or equal to 5.0
9 | CN(C)c1ccc(-c2cc3c(O)c(-c4ccncc4)c(=O)[nH]c3cc2Cl)cc1 [Example 84, 7-Chloro-6-(4-(dimethylamino)phenyl)-4-hydroxy-3-(pyridin-4-yl)quinolin-2(1H)-one] | greater than or equal to 5.0
10 | Cc1cc(-c2c(O)c3cc(-c4ccc(N(C)C)cc4)c(Cl)cc3[nH]c2=O)n(C)n1 [Example 96, 7-Chloro-3-(1,3-dimethyl-1H-pyrazol-5-yl)-6-(4-(dimethylamino)phenyl)-4-hydroxyquinolin-2(1H)-one] | greater than or equal to 5.0
11 | CN(C)c1ccc(-c2cc3c(O)cc(=O)[nH]c3cc2Cl)cc1 [Example 12, 7-Chloro-6-(4-(dimethylamino)phenyl)-4-hydroxyquinolin-2(1H)-one] | greater than or equal to 5.0
12 | Cc1ccc(Oc2c(O)c3cc(-c4ccc(N(C)C)cc4)c(Cl)cc3[nH]c2=O)cc1 [Example 81, 7-Chloro-6-(4-(dimethylamino)phenyl)-4-hydroxy-3-(p-tolyloxy)quinolin-2(1H)-one] | greater than or equal to 5.0
13 | COC(=O)Nc1ccc(-c2cc3c(O)c(-c4cccc(OC)c4)c(=O)[nH]c3cc2Cl)cc1 [Example 35, Methyl (4-(7-chloro-4-hydroxy-3-(3-methoxyphenyl)-2-oxo-1,2-dihydroquinolin-6-yl)phenyl) carbamate] | greater than or equal to 5.0
14 | CN(C)c1ccc(-c2cc3c(O)c(Oc4ccccc4)c(=O)[nH]c3cc2Cl)cc1 [Example 51, 7-Chloro-6-(4-(dimethylamino)phenyl)-4-hydroxy-3-phenoxyquinolin-2(1H)-one] | greater than or equal to 5.0
15 | COc1ccccc1Oc1c(O)c2cc(-c3ccc4c(ccn4C)c3)c(Cl)cc2[nH]c1=O [Example 111, 7-Chloro-4-hydroxy-3-(2-methoxyphenoxy)-6-(1-methyl-1H-indol-5-yl)quinolin-2(1H)-one] | greater than or equal to 5.0
16 | O=c1[nH]c2cc(Cl)c(-c3ccc(N4CCCCC4)cc3)cc2c(O)c1-n1cncn1 [Example 136, 7-Chloro-4-hydroxy-6-(4-(piperidin-1-yl)phenyl)-3-(1H-1,2,4-triazol-1-yl)quinolin-2(1H)-one] | greater than or equal to 5.0

Row | Structure (SMILES) | average pEC200 (-Log(compound concentration leading to a 2-fold AMPK activity increase))
17 | Cc1ccc(-c2c(O)c3cc(-c4ccc(N(C)C)cc4)c(Cl)cc3[nH]c2=O)cc1 [Example 160, 7-Chloro-6-(4-(dimethylamino)phenyl)-4-hydroxy-3-(p-tolyl)quinolin-2(1H)-one] | greater than or equal to 5.0
18 | Cc1cc(-c2c(O)c3cc(-c4ccc(N5CCCCC5)cc4)c(Cl)cc3[nH]c2=O)on1 [Example 11, 7-Chloro-4-hydroxy-3-(3-methylisoxazol-5-yl)-6-(4-(piperidin-1-yl)phenyl)quinolin-2(1H)-one] | greater than or equal to 5.0
19 | COc1cnn(-c2c(O)c3cc(-c4ccc(N5CCCCC5)cc4)c(Cl)cc3[nH]c2=O)c1 [Example 158, 7-Chloro-4-hydroxy-3-(4-methoxy-1H-pyrazol-1-yl)-6-(4-(piperidin-1-yl)phenyl)quinolin-2(1H)-one] | greater than or equal to 5.0
20 | CN(C)c1ccc(-c2cc3c(O)c(Oc4cccc(F)c4)c(=O)[nH]c3cc2Cl)cc1 [Example 65, 7-Chloro-6-(4-(dimethylamino)phenyl)-3-(3-fluorophenoxy)-4-hydroxyquinolin-2(1H)-one] | greater than or equal to 5.0
21 | Cc1cc(-c2c(O)c3cc(-c4ccc(N5CCCC5)cc4)c(Cl)cc3[nH]c2=O)on1 [Example 100, 7-Chloro-4-hydroxy-3-(3-methylisoxazol-5-yl)-6-(4-(pyrrolidin-1-yl)phenyl)quinolin-2(1H)-one] | greater than or equal to 5.0
22 | CCc1ccc(-c2cc3c(O)c(-c4cc(C)no4)c(=O)[nH]c3cc2Cl)cc1 [Example 43, 7-Chloro-6-(4-ethylphenyl)-4-hydroxy-3-(3-methylisoxazol-5-yl)quinolin-2(1H)-one] | greater than or equal to 5.0
23 | COc1cccc(-c2c(O)c3cc(-c4ccc(C(=O)NC5CCCC5)cc4)c(Cl)cc3[nH]c2=O)c1 [Example 5, 4-{7-Chloro-4-hydroxy-3-[3-(methyloxy)phenyl]-2-oxo-1,2-dihydro-6-quinolinyl}-N-cyclopentylbenzamide] | greater than or equal to 5.0
24 | Cc1ccn(-c2c(O)c3cc(-c4ccc(N(C)C)cc4)c(Cl)cc3[nH]c2=O)n1 [Example 174, 7-Chloro-6-(4-(dimethylamino)phenyl)-4-hydroxy-3-(3-methyl-1H-pyrazol-1-yl)quinolin-2(1H)-one] | greater than or equal to 5.0
25 | CN(C)c1ccc(-c2cc3c(O)c(-n4cccn4)c(=O)[nH]c3cc2Cl)cc1 [Example 49, 7-Chloro-6-(4-(dimethylamino)phenyl)-4-hydroxy-3-(1H-pyrazol-1-yl)quinolin-2(1H)-one] | greater than or equal to 5.0
26 | Cc1cc(C)n(-c2c(O)c3cc(-c4ccc(N(C)C)cc4)c(Cl)cc3[nH]c2=O)n1 [Example 80, 7-Chloro-3-(3,5-dimethyl-1H-pyrazol-1-yl)-6-(4-(dimethylamino)phenyl)-4-hydroxyquinolin-2(1H)-one] | greater than or equal to 5.0
27 | O=c1[nH]c2cc(Cl)c(-c3ccc(N4CCCCC4)cc3)cc2c(O)c1-n1cc(Br)cn1 [Example 181, 3-(4-Bromo-1H-pyrazol-1-yl)-7-chloro-4-hydroxy-6-(4-(piperidin-1-yl)phenyl)quinolin-2(1H)-one] | greater than or equal to 5.0
28 | CN(C)c1ccc(-c2cc3c(O)c(Oc4cccc(C(=O)O)c4)c(=O)[nH]c3cc2Cl)cc1 [Example 92, 3-((7-Chloro-6-(4-(dimethylamino)phenyl)-4-hydroxy-2-oxo-1,2-dihydroquinolin-3-yl)oxy)benzoic acid] | greater than or equal to 5.0
29 | COc1cccc(-c2ccc(-c3cc4c(O)c(-c5cccc(C(=O)O)c5)c(=O)[nH]c4cc3Cl)cc2)c1O [Example 2, 3-{7-Chloro-4-hydroxy-6-[2′-hydroxy-3′-(methyloxy)-4-biphenylyl]-2-oxo-1,2-dihydro-3-quinolinyl}benzoic acid] | greater than or equal to 5.0
30 | CN(C)c1ccc(-c2cc3c(O)c(-n4cc(Br)cn4)c(=O)[nH]c3cc2Cl)cc1 [Example 180, 3-(4-Bromo-1H-pyrazol-1-yl)-7-chloro-6-(4-(dimethylamino)phenyl)-4-hydroxyquinolin-2(1H)-one] | greater than or equal to 5.0
31 | CNc1ccc(-c2cc3c(O)c(-c4ccccc4)c(=O)[nH]c3cc2Cl)cc1 [Example 66, 7-Chloro-4-hydroxy-6-(4-(methylamino)phenyl)-3-phenylquinolin-2(1H)-one] | greater than or equal to 5.0
